Source: PMC11387770
These are yes or no findings as the source states them, for the method shown. In cells and extracts the contact can be indirect. Some entries that bind do so weakly or less than the wild type. For some of these results: Sequences can lack the tags named with a protein. One block for each binder: values may come before it.

Sequences of proteins named here, by UniProt entry; tags and fusion partners are left off. A change or cut given only in a name is not applied to a line headed by its entry.
UniProt Q9BPZ7: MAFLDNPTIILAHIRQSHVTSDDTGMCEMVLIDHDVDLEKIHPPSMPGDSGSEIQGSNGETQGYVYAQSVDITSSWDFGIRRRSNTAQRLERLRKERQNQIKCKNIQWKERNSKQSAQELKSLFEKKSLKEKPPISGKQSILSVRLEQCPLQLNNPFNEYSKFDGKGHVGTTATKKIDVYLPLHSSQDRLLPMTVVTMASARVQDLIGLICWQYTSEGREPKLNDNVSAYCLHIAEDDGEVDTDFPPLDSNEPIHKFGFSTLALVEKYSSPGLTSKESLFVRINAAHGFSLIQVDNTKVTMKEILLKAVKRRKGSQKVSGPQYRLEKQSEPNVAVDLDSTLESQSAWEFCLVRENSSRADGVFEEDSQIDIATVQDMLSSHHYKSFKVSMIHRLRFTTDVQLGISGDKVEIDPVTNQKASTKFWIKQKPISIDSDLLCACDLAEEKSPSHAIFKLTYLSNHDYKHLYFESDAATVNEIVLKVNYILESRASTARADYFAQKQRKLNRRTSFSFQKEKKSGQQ

Experiments:
[1] = molecular target: SIN1, ectopically expressed with CRLF1 variants (UniProt Q9BPZ7); test: co-IP; CRLF1 variants ectopically expressed with either AKT or SIN1 (Fig. 7H-J); which partner was precipitated is not told
[2] = molecular target: stress-activated protein kinase interacting protein 1 (SIN1) (human (endogenous in 293T)) (UniProt Q9BPZ7); test: co-IP; 293T cells with or without overexpressed CRLF1; precipitation with antibodies against AKT or SIN1 and protein A Sepharose beads; IP buffer 20 mM Tris pH 7.5, 150 mM NaCl, 1% Triton X-100, 1 mM EDTA; also with CRLF1 knock-down (Fig. 7C)

binding [1]: binds
B1: CRLF1 aa 237-326 (domain or fragment, UniProt O75462 237-326)
chain: PPPDVHVSRVGGLEDQLSVRWVSPPALKDFLFQAKYQIRYRVEDSVDWKVVDDVSNQTSCRLAGLKPGTVYFVQVRCNPFGIYGSKKAGI

binding [2]: binds
B2: cytokine receptor-like factor 1 (CRLF1), full length, C-terminal His-tagged (protein, UniProt O75462 38-422)
chain: AHTAVISPQDPTLLIGSSLLATCSVHGDPPGATAEGLYWTLNGRRLPPELSRVLNASTLALALANLNGSRQRSGDNLVCHARDGSILAGSCLYVGLPPEKPVNISCWSKNMKDLTCRWTPGAHGETFLHTNYSLKYKLRWYGQDNTCEEYHTVGPHSCHIPKDLALFTPYEIWVEATNRLGSARSDVLTLDILDVVTTDPPPDVHVSRVGGLEDQLSVRWVSPPALKDFLFQAKYQIRYRVEDSVDWKVVDDVSNQTSCRLAGLKPGTVYFVQVRCNPFGIYGSKKAGIWSEWSHPTAASTPRSERPGPGGGACEPRGGEPSSGPVRRELKQFLGWLKKHAYCSNLSFRLYDQWRAWMQKSHKTRNQDEGILPSGRRGTARGPAR

binding [1]: no binding
B3: CRLF1 aa 132-236 (domain or fragment, UniProt O75462 132-236)
chain: GLPPEKPVNISCWSKNMKDLTCRWTPGAHGETFLHTNYSLKYKLRWYGQDNTCEEYHTVGPHSCHIPKDLALFTPYEIWVEATNRLGSARSDVLTLDILDVVTTD

binding [1]: binds
B4: CRLF1 aa 1-326 (lacking the WSXWS motif) (domain or fragment, UniProt O75462 38-326)
chain: AHTAVISPQDPTLLIGSSLLATCSVHGDPPGATAEGLYWTLNGRRLPPELSRVLNASTLALALANLNGSRQRSGDNLVCHARDGSILAGSCLYVGLPPEKPVNISCWSKNMKDLTCRWTPGAHGETFLHTNYSLKYKLRWYGQDNTCEEYHTVGPHSCHIPKDLALFTPYEIWVEATNRLGSARSDVLTLDILDVVTTDPPPDVHVSRVGGLEDQLSVRWVSPPALKDFLFQAKYQIRYRVEDSVDWKVVDDVSNQTSCRLAGLKPGTVYFVQVRCNPFGIYGSKKAGI
